Results as given in PubChem BioAssay AID651803 (National Center for Advancing Translational Sciences (NCATS), 2012).
Screen size: about 1,200 compounds; fewer than 10 were called active. Calls follow the shape of the dose curve; as a rule, active = well fitted curve in the direction sought with a large enough effect; inconclusive = small, poorly fitted or top-dose-only effect, or another doubt; inactive = no such curve, though single readings can be large or run the other way. The list shows a part of the results.

Sequences of proteins named here, by UniProt entry; tags and fusion partners are left off. A change or cut given only in a name is not applied to a line headed by its entry.
UniProt P11308: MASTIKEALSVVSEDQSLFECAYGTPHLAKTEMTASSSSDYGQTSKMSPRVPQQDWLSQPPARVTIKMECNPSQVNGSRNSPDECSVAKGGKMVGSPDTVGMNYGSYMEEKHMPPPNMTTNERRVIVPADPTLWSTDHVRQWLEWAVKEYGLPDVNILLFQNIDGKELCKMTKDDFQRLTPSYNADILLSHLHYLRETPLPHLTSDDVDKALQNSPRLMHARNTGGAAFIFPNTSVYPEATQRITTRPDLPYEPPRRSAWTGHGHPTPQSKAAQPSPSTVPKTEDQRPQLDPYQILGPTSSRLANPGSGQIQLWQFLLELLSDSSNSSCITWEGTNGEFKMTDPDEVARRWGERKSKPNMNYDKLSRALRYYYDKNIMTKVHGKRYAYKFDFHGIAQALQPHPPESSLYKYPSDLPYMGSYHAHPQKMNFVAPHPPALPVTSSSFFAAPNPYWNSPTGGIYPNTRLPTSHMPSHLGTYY

Each compound was assayed against Transcriptional regulator ERG (Homo sapiens) (UniProt P11308) (assay: qHTS for Small Molecule Inhibitors of the ERG Ets/DNA interaction: TR assay against cherry picks). Conditions: ERG Ets domain-DNA fluorescence polarization, Texas red probe; at 154 µM (top of the series).
Source text: The Ets family of proteins is a family of ~30 conserved transcription factors defined by the presence of an ~85 amino acid domain referred to as the Ets domain, which mediates sequence-specific DNA binding to a core DNA element GGAA/T.The Ets family member ERG has been linked to several neoplasms. […] More extensive studies of the effects of over-expression of ERG in prostate cells have recently been carried out and have shown that over-expression of ERG results in increased invasion. […] We will carry out a high throughout screen to identify inhibitors of the interaction between ERG and DNA using a fluorescence polarization (FP) assay with a His-tagged ERG Ets domain and fluorescently-labeled DNA probes to develop small molecule inhibitors of this interaction as probes to test this hypothesis and lay the groundwork for the development of targeted therapies against ERG. This is the confirmation against the cherry picks in theprimary screening assay. NIH Molecular Libraries Probe Production Network [MLPCN] NIH Chemical Genomics Center [NCGC] Grant: NS066464 PI Name: John Bushweller, University of Virgina
1.5 ul of protein solution (1 uM ERG domain in 300mM KCl, 50mM Tris-HCl, 1mM EDTA, 1mM DTT, pH 7.5); 20 nl Control plate and compound library plate; 1.5 ul mixture of 5 nM Fluorescein-DNA and 100nM Texas-615-DNA solution in same buffer as above solution; measure fluorescence polarization sequentially for fluorescein (Excitation = 480 nm, Emission = 535s, 535p nm) and Texas red (Excitation = 555 nm, Emission = 632s, 632p nm).
Also: % of control where 0% means no effect.

Activity change, negative = inhibition, inactive:
CNC(=O)c1cccc(-n2c(C)nc3cccnc32)c1C 13%, CN1CCN(C(=O)C2=C[C@@H](C(C)(C)C)C[C@@H](OCc3ccc(CO)cc3)O2)CC1 2.83%, COc1ccc(NC(=O)C2CC(=O)n3c(nc4ccccc43)N2)cc1 (configuration not stated) 10.4%, COc1ccc(-c2csc3nc(-c4ccc(C)cc4)oc(=O)c23)cc1OC 5.65%, C/C(=N\Nc1ccc([N+](=O)[O-])cc1[N+](=O)[O-])C(C)C(C)C (configuration not stated) -0.325%, Cc1nc(Nc2cccc(F)c2)c2oc3ccccc3c2n1 1.1%, CCC(=O)NCCn1c(C)cc2ccccc21 4.77%, COc1cc(/C=C/C(=O)OCC(=O)NC(=O)NC2CCCCC2C)ccc1OC(F)F (configuration not stated) 1.76%, COc1ccc(C)cc1N(C(=O)c1ccc(C#N)cc1)C1=NC(C)(C)CS1 -7.4%, COc1ccc(S(=O)(=O)NCC2CC3C=CC2C3)cc1OC (configuration not stated) -2.44%, Cc1ccccc1OCC(=O)Nc1ccc2[nH]ncc2c1 -5.59%, CC(C)C(=O)Nc1ccc(-c2nc3ncccc3o2)cc1 2.57%, COc1ccc(OCCn2c(=O)sc3ccccc32)cc1 3.71%, COc1ccccc1OCC(O)CN1CCN(CC(=O)Nc2c(C)cccc2C)CC1 (configuration not stated) 1.41%, CC(C)=CCOc1ccc2c(C)c(CC(=O)N3C[C@H]4C[C@@H](C3)c3cccc(=O)n3C4)c(=O)oc2c1C -10.3%, CCOC(=O)C(=O)c1c(-c2ccccc2)nc2ccccn12 -0.0707%, CN1C(=O)c2cccc3c(N)ccc(c23)C1=O 5.1%, O=C(CCNS(=O)(=O)c1ccc2c(c1)CCN2C(=O)C1CC1)Nc1ccc(F)cc1F -13.1%, O=C1c2ccccc2C(=O)c2c1ncn2-c1ccccc1 -4.24%, Cc1ccc(-c2nc(CN3CCCC(C(=O)N4CCOCC4)C3)c(C)o2)cc1 (configuration not stated) 4.94%, Cc1ccccc1NC(=O)c1ccccc1-c1ccccc1 -8.52%, COc1ccc(CNC(=O)N[C@@H](Cc2c[nH]c3ccccc23)C(=O)O)cc1 3.14%, Nc1ccc2[nH]ncc2c1 5.38%, COc1ccc(NS(=O)(=O)c2cccc(NC(=O)NC3CCCCC3)c2)cc1 -10.5%, O=C(c1c(F)cccc1Cl)N1CCN(c2ccccn2)CC1 4.07%, O=C(CCc1c[nH]c2ccccc12)NCc1ccco1 -11.1%, Cc1ccc(NC(=O)Cc2c(O)c3ccccc3[nH]c2=O)c(C)c1 5.52%
